Data from patent US20130209489A1 (Amgen, published 2013).
These are yes or no findings as the source states them, for the method shown. Some binding calls cover weakened binding; strength is not graded here.

Sequences of proteins named here, by UniProt entry; tags and fusion partners are left off. Residues count along the entry.
UniProt O95390, residues 299-407: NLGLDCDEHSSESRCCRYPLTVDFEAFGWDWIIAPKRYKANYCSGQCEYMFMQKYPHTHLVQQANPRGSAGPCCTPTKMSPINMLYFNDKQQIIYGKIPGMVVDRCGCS

Legend:
[1] = target: Peptide C (CNBr peptide, Cys knot, dimer) (human); assay: BIAcore competition assay, legend of FIG. 6
[2] = target: Peptide E (reduced CNBr peptide, 1-80) (human); assay: BIAcore competition assay, legend of FIG. 6
GDF11 = target: T1, GDF11 (UniProt O95390 299-407); assay: Biacore SPR, 10 nM ligand over immobilized antibody
T1 construct: also called growth and differentiation factor 11; BMP-11

[3] = target: Peptide C (CNBr peptide, Cys knot, dimer) (human); assay: direct BIAcore binding, 25 nM antibody over immobilized peptide
[4] = target: Peptide E (reduced CNBr peptide, 1-80) (human); assay: as above
[5] = target: Peptide C (CNBr peptide, Cys knot, dimer) (human); assay: BIAcore competition assay, peptide in solution against immobilized human myostatin
[6] = target: Peptide E (reduced CNBr peptide, 1-80) (human); assay: as above
[7] = target: Peptide C (CNBr peptide, Cys knot, dimer) (human); assay: direct BIAcore binding: 25 nM 12A5-5 passed over the covalently immobilized peptide, then buffer
[8] = target: Peptide E (reduced CNBr peptide, 1-80) (human); assay: as above
[9] = target: Peptide C (CNBr peptide, Cys knot, dimer) (human); assay: BIAcore competition: 12A5-5 pre-incubated with the HPLC peptide fraction in solution, then passed over immobilized human myostatin; low response means the peptide binds the antibody
[10] = target: Peptide E (reduced CNBr peptide, 1-80) (human); assay: as above

Measured: binding

B1: anti-myostatin neutralizing monoclonal antibody 12A5-5 (antibody, V domains shown)
VH: EVQLVESGGGLVQPGGSLRLSCAASGFTFSRYWMNWVRQAPGKGLEWVAQIRLKSDNYATHYAESVKGRFTISRDNAKNSLYLQMNSLRAEDTAVYYCTEGLDYWGQGTTVTVSS
VL: DIQMTQSPSSLSASVGDRVTITCKASQDINKYVAWYQQKPGKAPKLLIYYTSWLQPGVPSRFSGSGSGTDFTFTISSLQPEDIATYYCLQYDNLLYTFGQGTKLEIK
notes: in the KinExA assay it was detected with a goat anti-human-Fc antibody, so it carries a human Fc; also called Mab 12A5-5; MAb 12A5-5
binds: [1] | [2] | GDF11 | [3] | [4] | [5] | [6] | [7] | [8] | [9] | [10]
